According to the supplement of paper PMC6078165:
Values are relative to the signal before dosing, not to a vehicle control; the signal also falls without drug.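 Fibroblast labels name human fibroblasts: mostly primary ones from tissues such as uterus (C12385, HUF), lung (H6013), bone (Hs27A), adrenal (HADF) and skin (WS1), plus mammary HMF and breast cancer-associated Hs343T. The cancer cells are basal-like or mesenchymal-like triple-negative breast cancer lines. The paper calls a changed response a hit when it shifts by more than 3x the replicate standard deviation. The tissue of the other fibroblasts is not given here.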

Test system: MDAMB231
Assay: relative JC-1 red fluorescence (viability) vs pre-drug, coculture with fibroblast (fraction); higher = more viable cancer cells
Procedure: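 JC-1 labelled TNBC cells cocultured 1:1 (1,500 cells each) with CellTrace Violet stained primary or stromal fibroblasts in 384-well plates in FluoroBrite medium, treated with one of 42 anticancer drugs at 0.1, 1, 10 or 100 uM. JC-1 red fluorescence (mitochondrial integrity in cancer cells only) was read by plate reader every 8 h for 72 h. Values are normalised to each well's pre-drug value. The stock of one drug was tenfold lower, so its dose labels may be too high.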

C=C1C[C@@H]2[C@H](CC[C@]3(C)C(=O)CC[C@@H]23)[C@@]2(C)C=CC(=O)C=C12 [Exemestane]
relative JC-1 red fluorescence
Conditions	8 h	16 h	24 h	32 h	40 h	48 h	56 h	64 h	72 h
0.1 µM, coculture fibroblast: C12385	0.778	0.711	0.674	0.608	0.551	0.531	0.489	0.483	0.471
0.1 µM, coculture fibroblast: H6013	0.901	0.819	0.754	0.735	0.678	0.655	0.637	0.614	0.571
0.1 µM, coculture fibroblast: H6019	0.811	0.728	0.691	0.659	0.596	0.57	0.521	0.505	0.472
0.1 µM, coculture fibroblast: H6076	0.882	0.7573	0.678	0.639	0.582	0.541	0.507	0.484	0.47
0.1 µM, coculture fibroblast: H6231	0.931	0.866	0.782	0.733	0.677	0.637	0.59	0.571	0.542
0.1 µM, coculture fibroblast: HADF	0.88	0.825	0.749	0.708	0.658	0.604	0.577	0.556	0.501
0.1 µM, coculture fibroblast: HCFa	0.901	0.828	0.812	0.796	0.754	0.721	0.684	0.658	0.609
0.1 µM, coculture fibroblast: HCPF	0.878	0.788	0.697	0.667	0.604	0.555	0.518	0.49	0.464
0.1 µM, coculture fibroblast: HHSteC	0.9069	0.8424	0.789	0.744	0.698	0.669	0.623	0.598	0.553
0.1 µM, coculture fibroblast: HMF	0.887	0.872	0.771	0.73	0.676	0.624	0.567	0.537	0.506
0.1 µM, coculture fibroblast: HPFa	0.933	0.867	0.806	0.756	0.719	0.683	0.632	0.602	0.544
0.1 µM, coculture fibroblast: HUF	0.849	0.758	0.723	0.599	0.526	0.505	0.444	0.442	0.421
0.1 µM, coculture fibroblast: Hs5	0.8646	0.7667	0.707	0.659	0.614	0.567	0.535	0.5079	0.472
0.1 µM, coculture fibroblast: Hs27A	0.8795	0.816	0.7693	0.755	0.708	0.655	0.648	0.622	0.565
0.1 µM, coculture fibroblast: Hs343T	0.847	0.704	0.644	0.5945	0.5426	0.497	0.444	0.42	0.389
0.1 µM, coculture fibroblast: WS1	0.7965	0.714	0.689	0.6466	0.608	0.5867	0.54	0.529	0.511
1 µM, coculture fibroblast: C12385	0.773	0.691	0.731	0.64	0.576	0.562	0.525	0.541	0.532
1 µM, coculture fibroblast: H6013	0.887	0.8226	0.7892	0.7744	0.734	0.718	0.694	0.674	0.632
1 µM, coculture fibroblast: H6019	0.763	0.68	0.679	0.618	0.563	0.537	0.486	0.465	0.421
1 µM, coculture fibroblast: H6076	0.896	0.83	0.7952	0.777	0.747	0.718	0.701	0.682	0.666
1 µM, coculture fibroblast: H6231	0.9184	0.8206	0.748	0.684	0.62	0.581	0.543	0.516	0.484
1 µM, coculture fibroblast: HADF	0.885	0.812	0.797	0.774	0.742	0.731	0.69	0.679	0.633
1 µM, coculture fibroblast: HCFa	0.896	0.826	0.7967	0.761	0.719	0.678	0.636	0.6	0.543
1 µM, coculture fibroblast: HCPF	0.905	0.822	0.788	0.771	0.717	0.687	0.665	0.634	0.612
1 µM, coculture fibroblast: HHSteC	0.917	0.893	0.838	0.791	0.743	0.701	0.65	0.624	0.576
1 µM, coculture fibroblast: HMF	0.8645	0.759	0.693	0.665	0.607	0.566	0.53	0.515	0.489
1 µM, coculture fibroblast: HPFa	0.9784	0.923	0.883	0.838	0.804	0.766	0.713	0.676	0.615
1 µM, coculture fibroblast: HUF	0.85	0.765	0.7415	0.642	0.57	0.5559	0.495	0.473	0.45
1 µM, coculture fibroblast: Hs5	0.903	0.81	0.751	0.71	0.66	0.607	0.571	0.535	0.505
1 µM, coculture fibroblast: Hs27A	0.882	0.817	0.784	0.7539	0.7045	0.64902	0.6354	0.607	0.544
1 µM, coculture fibroblast: Hs343T	0.9058	0.7813	0.7346	0.7023	0.65	0.598	0.556	0.533	0.49823
1 µM, coculture fibroblast: WS1	0.744	0.654	0.603	0.542	0.495	0.457	0.404	0.389	0.366
10 µM, coculture fibroblast: C12385	0.795	0.778	0.713	0.721	0.681	0.665	0.624	0.603	0.573
10 µM, coculture fibroblast: H6013	0.903	0.888	0.876	0.88	0.856	0.829	0.827	0.797	0.77
10 µM, coculture fibroblast: H6019	0.808	0.762	0.704	0.695	0.648	0.636	0.594	0.585	0.54
10 µM, coculture fibroblast: H6076	0.929	0.861	0.839	0.841	0.819	0.807	0.786	0.764	0.757
10 µM, coculture fibroblast: H6231	0.865	0.876	0.804	0.757	0.709	0.672	0.611	0.574	0.526
10 µM, coculture fibroblast: HADF	0.8968	0.865	0.837	0.8131	0.7867	0.733	0.725	0.71	0.658
10 µM, coculture fibroblast: HCFa	0.912	0.855	0.838	0.832	0.7875	0.755	0.736	0.705	0.662
10 µM, coculture fibroblast: HCPF	0.925	0.847	0.79	0.773	0.7195	0.6822	0.644	0.61	0.575
10 µM, coculture fibroblast: HHSteC	0.9337	0.899	0.8616	0.823	0.784	0.7562	0.7164	0.6837	0.6343
10 µM, coculture fibroblast: HMF	0.964	0.9	0.8472	0.818	0.775	0.733	0.686	0.648	0.613
10 µM, coculture fibroblast: HPFa	0.9699	0.9454	0.906	0.894	0.867	0.818	0.77	0.729	0.667
10 µM, coculture fibroblast: HUF	0.881	0.799	0.8129	0.7064	0.6384	0.624	0.562	0.553	0.521
10 µM, coculture fibroblast: Hs5	0.912	0.861	0.849	0.834	0.805	0.77	0.7279	0.7043	0.673
10 µM, coculture fibroblast: Hs27A	0.915	0.8817	0.849	0.83	0.789	0.72	0.725	0.706	0.644
10 µM, coculture fibroblast: Hs343T	0.961	0.88	0.813	0.788	0.73	0.692	0.642	0.6	0.555
10 µM, coculture fibroblast: WS1	0.807	0.754	0.767	0.732	0.711	0.703	0.662	0.65	0.62
100 µM, coculture fibroblast: C12385	0.7973	0.81	0.753	0.79	0.763	0.751	0.728	0.726	0.7
100 µM, coculture fibroblast: H6013	0.936	0.901	0.888	0.902	0.838	0.805	0.796	0.786	0.752
100 µM, coculture fibroblast: H6019	0.804	0.7951	0.7137	0.74	0.709	0.697	0.664	0.635	0.612
100 µM, coculture fibroblast: H6076	0.928	0.863	0.8638	0.8648	0.8478	0.82676	0.83	0.82	0.819
100 µM, coculture fibroblast: H6231	0.923	0.87	0.831	0.797	0.756	0.739	0.721	0.687	0.6475
100 µM, coculture fibroblast: HADF	0.911	0.8951	0.8739	0.859	0.826	0.764	0.741	0.7123	0.645
100 µM, coculture fibroblast: HCFa	0.934	0.915	0.89004	0.8548	0.811	0.7535	0.716	0.681	0.609
100 µM, coculture fibroblast: HCPF	0.9349	0.867	0.844	0.85	0.807	0.785	0.759	0.726	0.713
100 µM, coculture fibroblast: HHSteC	0.9374	0.942	0.915	0.8978	0.868	0.849	0.819	0.804	0.756
100 µM, coculture fibroblast: HMF	0.9045	0.836	0.815	0.804	0.786	0.762	0.745	0.729	0.724
100 µM, coculture fibroblast: HPFa	0.961	0.95	0.928	0.903	0.882	0.854	0.812	0.794	0.749
100 µM, coculture fibroblast: HUF	0.8753	0.7871	0.8387	0.7711	0.746	0.755	0.722	0.717	0.707
100 µM, coculture fibroblast: Hs5	0.899	0.849	0.834	0.815	0.781	0.745	0.726	0.696	0.687
100 µM, coculture fibroblast: Hs27A	0.93	0.909	0.894	0.8735	0.823	0.732	0.777	0.757	0.714
100 µM, coculture fibroblast: Hs343T	0.9247	0.8496	0.8319	0.8207	0.7926	0.769	0.7433	0.734	0.716
100 µM, coculture fibroblast: WS1	0.777	0.774	0.691	0.736	0.724	0.704	0.671	0.642	0.625
